At least one compound was matched to its structure with a doubt left.
System: A549 and H1299
Assay: Tumor cell invasion assay (Matrigel Transwell)
Type: cell-based, human
Conditions: 10 μM LY 294002; 1 μg/ml MMP-II inhibitor

O=c1cc(N2CCOCC2)oc2c(-c3ccccc3)cccc12 [LY 294002]
effect on invasion: inhibitory effect
